According to doi:10.64898/2025.12.22.696049 (bioRxiv, 2025):
No constants are given. Whether binding was seen depends on the method and setting. Some entries that bind do so weakly or less than the wild type.

Sequences of proteins named here, by UniProt entry; tags and fusion partners are left off.
UniProt P19097: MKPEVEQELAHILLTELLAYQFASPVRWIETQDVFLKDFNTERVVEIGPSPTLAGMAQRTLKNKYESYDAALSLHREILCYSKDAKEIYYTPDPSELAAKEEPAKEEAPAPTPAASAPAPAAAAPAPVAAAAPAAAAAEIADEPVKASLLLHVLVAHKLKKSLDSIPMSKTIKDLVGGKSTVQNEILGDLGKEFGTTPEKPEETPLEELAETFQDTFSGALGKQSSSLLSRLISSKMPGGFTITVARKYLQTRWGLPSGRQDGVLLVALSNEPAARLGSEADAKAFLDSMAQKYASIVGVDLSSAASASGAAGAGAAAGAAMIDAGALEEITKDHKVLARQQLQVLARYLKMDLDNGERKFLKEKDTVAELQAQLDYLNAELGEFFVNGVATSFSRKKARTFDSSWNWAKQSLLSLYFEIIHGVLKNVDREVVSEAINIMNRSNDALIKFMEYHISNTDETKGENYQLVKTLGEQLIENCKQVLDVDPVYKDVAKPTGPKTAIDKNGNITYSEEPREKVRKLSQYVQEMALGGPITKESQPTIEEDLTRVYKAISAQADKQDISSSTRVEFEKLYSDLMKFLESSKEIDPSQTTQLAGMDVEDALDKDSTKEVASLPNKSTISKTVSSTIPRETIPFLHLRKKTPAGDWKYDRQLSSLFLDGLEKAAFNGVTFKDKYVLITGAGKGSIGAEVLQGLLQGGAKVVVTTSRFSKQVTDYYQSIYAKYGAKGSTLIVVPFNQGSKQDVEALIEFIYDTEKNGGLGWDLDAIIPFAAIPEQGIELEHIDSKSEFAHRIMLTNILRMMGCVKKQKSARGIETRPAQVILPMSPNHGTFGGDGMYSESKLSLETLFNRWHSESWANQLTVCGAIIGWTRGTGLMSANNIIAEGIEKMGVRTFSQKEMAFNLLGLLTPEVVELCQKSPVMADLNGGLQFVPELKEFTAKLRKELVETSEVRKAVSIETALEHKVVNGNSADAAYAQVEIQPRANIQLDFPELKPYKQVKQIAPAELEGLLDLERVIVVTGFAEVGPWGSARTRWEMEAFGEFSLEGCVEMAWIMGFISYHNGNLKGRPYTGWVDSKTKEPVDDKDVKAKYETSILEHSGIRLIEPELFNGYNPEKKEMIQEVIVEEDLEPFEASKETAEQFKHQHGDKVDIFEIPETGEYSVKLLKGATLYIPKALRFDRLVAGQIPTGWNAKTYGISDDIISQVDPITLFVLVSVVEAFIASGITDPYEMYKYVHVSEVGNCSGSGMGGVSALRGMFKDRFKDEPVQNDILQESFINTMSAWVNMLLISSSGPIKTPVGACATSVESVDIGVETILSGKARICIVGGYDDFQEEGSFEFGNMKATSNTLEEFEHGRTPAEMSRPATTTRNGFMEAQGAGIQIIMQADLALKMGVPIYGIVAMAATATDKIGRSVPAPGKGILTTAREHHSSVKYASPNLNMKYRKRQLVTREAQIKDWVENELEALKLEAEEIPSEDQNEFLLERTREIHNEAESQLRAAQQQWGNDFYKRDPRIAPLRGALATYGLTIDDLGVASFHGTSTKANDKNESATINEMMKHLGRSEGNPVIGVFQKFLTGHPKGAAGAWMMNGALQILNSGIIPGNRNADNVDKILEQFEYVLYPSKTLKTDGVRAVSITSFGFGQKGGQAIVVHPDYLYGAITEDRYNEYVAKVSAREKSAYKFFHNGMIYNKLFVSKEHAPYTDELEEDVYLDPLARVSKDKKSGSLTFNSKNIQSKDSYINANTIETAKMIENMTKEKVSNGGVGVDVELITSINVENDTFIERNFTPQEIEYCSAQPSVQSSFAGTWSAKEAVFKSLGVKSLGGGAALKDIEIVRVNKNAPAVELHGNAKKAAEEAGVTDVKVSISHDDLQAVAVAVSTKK
UniProt P07149: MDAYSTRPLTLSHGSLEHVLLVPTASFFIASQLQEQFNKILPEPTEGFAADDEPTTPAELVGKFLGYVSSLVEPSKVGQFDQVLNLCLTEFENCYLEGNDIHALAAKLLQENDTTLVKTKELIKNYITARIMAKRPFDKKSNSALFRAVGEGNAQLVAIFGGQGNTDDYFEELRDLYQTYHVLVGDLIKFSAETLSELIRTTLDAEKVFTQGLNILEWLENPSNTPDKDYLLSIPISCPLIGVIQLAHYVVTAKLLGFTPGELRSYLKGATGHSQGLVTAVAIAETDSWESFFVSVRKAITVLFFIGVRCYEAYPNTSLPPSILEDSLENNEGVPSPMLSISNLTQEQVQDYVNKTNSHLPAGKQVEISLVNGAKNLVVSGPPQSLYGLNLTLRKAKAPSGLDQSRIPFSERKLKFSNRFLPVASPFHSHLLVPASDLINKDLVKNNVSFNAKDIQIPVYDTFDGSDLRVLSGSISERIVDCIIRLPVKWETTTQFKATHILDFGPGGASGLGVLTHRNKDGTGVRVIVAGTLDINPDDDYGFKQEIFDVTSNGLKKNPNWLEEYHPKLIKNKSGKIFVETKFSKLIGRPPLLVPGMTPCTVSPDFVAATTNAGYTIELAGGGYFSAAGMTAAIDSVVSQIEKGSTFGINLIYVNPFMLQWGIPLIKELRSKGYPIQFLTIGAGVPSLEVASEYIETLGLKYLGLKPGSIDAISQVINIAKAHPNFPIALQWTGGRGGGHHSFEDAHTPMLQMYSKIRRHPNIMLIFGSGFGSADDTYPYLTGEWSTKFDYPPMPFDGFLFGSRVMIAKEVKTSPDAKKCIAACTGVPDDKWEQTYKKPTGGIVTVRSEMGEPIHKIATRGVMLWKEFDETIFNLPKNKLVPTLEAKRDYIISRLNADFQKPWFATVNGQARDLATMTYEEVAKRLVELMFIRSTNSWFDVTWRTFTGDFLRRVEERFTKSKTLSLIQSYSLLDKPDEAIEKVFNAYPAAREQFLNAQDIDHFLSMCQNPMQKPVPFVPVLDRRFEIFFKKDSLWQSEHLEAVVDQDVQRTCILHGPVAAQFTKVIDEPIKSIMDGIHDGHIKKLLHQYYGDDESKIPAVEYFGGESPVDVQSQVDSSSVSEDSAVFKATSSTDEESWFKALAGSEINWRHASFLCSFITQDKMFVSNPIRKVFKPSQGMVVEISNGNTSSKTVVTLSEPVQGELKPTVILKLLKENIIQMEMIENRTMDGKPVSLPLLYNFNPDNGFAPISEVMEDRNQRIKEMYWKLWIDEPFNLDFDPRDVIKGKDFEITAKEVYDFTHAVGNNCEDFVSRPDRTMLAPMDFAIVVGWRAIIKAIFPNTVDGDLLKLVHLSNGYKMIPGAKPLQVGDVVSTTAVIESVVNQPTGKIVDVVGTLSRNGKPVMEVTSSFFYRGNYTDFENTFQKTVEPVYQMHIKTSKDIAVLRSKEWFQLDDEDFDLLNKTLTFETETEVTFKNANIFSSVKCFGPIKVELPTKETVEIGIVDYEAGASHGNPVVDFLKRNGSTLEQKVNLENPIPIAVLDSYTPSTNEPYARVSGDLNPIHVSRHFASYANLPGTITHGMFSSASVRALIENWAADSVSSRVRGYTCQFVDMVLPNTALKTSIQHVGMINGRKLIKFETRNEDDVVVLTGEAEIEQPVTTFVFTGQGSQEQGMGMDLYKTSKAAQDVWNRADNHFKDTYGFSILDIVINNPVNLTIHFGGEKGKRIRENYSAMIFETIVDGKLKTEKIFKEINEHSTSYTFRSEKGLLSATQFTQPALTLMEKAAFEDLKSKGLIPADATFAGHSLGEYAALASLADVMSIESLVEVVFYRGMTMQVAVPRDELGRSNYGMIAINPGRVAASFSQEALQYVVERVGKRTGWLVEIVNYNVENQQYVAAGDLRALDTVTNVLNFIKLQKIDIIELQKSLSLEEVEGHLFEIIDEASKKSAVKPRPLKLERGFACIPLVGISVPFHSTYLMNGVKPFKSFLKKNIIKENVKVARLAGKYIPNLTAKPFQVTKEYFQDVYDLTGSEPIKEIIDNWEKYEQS
UniProt Q9UUG0: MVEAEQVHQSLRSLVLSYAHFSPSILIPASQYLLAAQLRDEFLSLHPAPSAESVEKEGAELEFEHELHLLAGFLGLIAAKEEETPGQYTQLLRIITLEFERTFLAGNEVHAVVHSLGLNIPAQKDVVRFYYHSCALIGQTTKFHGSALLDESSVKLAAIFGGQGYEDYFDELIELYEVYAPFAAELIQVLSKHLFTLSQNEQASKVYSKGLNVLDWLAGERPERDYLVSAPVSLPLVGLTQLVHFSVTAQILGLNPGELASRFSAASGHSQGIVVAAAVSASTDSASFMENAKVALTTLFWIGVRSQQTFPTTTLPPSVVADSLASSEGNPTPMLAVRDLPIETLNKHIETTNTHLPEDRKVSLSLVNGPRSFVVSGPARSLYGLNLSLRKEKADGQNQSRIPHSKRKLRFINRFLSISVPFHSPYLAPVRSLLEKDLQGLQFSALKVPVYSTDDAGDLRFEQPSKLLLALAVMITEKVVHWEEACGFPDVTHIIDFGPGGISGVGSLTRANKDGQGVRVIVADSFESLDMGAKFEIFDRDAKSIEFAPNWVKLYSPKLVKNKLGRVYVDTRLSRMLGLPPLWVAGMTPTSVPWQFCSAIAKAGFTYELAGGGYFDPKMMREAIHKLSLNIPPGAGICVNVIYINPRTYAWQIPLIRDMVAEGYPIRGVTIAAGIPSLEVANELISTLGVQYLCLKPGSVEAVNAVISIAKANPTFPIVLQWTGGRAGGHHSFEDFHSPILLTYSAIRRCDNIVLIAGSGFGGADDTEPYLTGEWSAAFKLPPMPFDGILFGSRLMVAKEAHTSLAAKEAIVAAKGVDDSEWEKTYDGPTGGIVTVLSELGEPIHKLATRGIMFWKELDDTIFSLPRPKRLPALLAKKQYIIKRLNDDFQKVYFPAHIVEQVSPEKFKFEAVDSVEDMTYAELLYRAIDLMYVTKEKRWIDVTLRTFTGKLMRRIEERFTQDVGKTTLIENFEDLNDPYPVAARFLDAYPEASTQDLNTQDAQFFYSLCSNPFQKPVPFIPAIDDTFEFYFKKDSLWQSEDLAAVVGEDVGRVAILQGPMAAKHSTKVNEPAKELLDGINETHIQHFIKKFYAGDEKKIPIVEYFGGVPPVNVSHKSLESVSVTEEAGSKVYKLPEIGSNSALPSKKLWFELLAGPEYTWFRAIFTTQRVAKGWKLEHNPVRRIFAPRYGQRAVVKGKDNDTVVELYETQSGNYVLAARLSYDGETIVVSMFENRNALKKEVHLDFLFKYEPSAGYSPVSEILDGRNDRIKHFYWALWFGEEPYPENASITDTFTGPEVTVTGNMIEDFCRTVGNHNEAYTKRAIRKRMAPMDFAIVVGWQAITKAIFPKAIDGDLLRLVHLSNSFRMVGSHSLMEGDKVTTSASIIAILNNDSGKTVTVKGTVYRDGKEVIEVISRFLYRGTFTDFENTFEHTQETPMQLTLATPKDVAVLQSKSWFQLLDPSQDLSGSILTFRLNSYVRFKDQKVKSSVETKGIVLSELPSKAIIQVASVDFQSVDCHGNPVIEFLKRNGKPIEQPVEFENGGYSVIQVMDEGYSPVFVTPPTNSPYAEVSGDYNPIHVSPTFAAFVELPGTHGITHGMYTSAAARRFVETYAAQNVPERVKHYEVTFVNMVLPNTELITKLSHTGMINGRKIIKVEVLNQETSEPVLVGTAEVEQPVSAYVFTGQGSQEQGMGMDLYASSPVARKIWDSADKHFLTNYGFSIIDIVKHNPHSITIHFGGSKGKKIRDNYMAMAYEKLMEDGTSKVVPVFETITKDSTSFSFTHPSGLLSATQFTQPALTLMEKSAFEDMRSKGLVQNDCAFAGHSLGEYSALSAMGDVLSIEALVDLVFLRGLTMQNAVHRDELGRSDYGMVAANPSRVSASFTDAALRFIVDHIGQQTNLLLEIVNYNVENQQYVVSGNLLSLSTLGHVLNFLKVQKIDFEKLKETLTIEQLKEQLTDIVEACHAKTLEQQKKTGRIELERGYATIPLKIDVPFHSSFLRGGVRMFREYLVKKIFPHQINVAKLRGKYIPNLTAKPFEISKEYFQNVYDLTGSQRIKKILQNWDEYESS

Legend:
[1] = molecular target: S. cerevisiae fatty acid synthase subunit FAS2/α (S. cerevisiae (endogenous in W303 or BY4742 cells)) (UniProt P19097); test: cryo-EM structure
[2] = molecular target: S. pombe fatty acid synthase subunit FAS2/α (S. pombe (endogenous in K972 cells)) (UniProt Q10289); test: cryo-EM structure

binding [1] | binding [2] | Substance
binds |  | S. cerevisiae fatty acid synthase subunit FAS1/ß (from UniProt P07149 1-2051) (enzyme)
 | binds | S. pombe fatty acid synthase subunit FAS1/ß (from UniProt Q9UUG0 1-2073) (enzyme)
